# These are yes or no findings as the source states them, for the method shown. Some entries that bind do so weakly or less than the wild type.
# Protein sequences, listed by entry. Tags and fused reporters are not part of them. Residues count along the entry.
# Talin head domain (residues 1-430) (P26039, residues 1-430): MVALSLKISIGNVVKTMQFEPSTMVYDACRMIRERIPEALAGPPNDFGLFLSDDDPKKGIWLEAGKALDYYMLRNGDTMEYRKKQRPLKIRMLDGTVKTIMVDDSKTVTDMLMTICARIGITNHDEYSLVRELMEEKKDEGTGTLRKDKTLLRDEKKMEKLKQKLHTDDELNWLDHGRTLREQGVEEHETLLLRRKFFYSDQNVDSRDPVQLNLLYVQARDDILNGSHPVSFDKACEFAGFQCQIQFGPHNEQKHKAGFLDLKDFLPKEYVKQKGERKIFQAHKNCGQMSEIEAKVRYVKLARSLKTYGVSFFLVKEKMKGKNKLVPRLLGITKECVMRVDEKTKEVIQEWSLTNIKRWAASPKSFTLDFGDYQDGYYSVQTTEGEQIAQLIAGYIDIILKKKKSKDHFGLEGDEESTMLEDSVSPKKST
# Talin rod R7R8 domains (P26039, residues 1357-1653): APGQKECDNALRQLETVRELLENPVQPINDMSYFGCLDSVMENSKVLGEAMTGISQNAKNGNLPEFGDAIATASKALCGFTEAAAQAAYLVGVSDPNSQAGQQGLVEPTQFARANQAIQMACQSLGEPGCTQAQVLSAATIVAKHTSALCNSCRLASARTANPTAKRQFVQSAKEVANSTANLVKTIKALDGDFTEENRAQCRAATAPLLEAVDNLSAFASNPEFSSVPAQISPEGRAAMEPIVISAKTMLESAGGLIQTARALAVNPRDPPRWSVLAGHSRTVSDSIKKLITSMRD
# Tests used:
# Talin rod R7R8 domains = target: T1, Talin rod R7R8 domains (UniProt P26039 1357-1653, limits assumed); assay: fluorescence polarization; fluorophore-labelled peptide titrated with talin R7R8
# T1 construct: domain: R7R8; also called talin R7R8; talin rod double-domain R7R8
# Procedure: To assess the binding affinities of S-TBS with talin, the Kd of TBS and S-TBS peptides with talin rod R7R8 and talin head (residues 1-430) were measured using fluorophore-labeled peptides and recombinantly expressed, purified talin proteins by FP assays. […] This gain of affinity may be attributed to the C8 staple as it stabilizes the helical structure of TBS, and the enhanced hydrophobic interaction between S-TBS and talin rod. The enhanced binding of S-TBS to talin further validates the design strategy of using stapled peptides as a potent competitive inhibitor.
# Fluorescent Polarization: Mixtures were prepared of purified talin proteins at a series concentration (R7R8: 0.2 μM to 20 μM; THD/b3-THD: 5 μM to 100 μM), or buffer only, with 20 nM FITC-labeled S-TBS (New England Peptide) in a buffer containing 20 mM HEPES, pH 7.5, 100 mM NaCl, and 2 mM DTT. After five minutes of incubation, 20 μl of the reaction mix was added to individual wells of a 384-well assay plate (Corning) and then measured fluorescence polarization at room temperature using a plate reader. A […] as emission polarization filters. FP signals were normalized against buffer-only background and then fit to a single-site (saturating) binding model using SigmaPlot (Systat Software).
# [1] = target: Talin head domain (residues 1-430) (UniProt P26039); assay: fluorescence polarization; fluorophore-labelled peptide titrated with talin head (residues 1-430)
binder,measurement,setting,value
"NEDIDQMFSTLLGEMDLLTQS (fluorophore label (5' 6-FAM, fluorescein) in the FP and cell assays) [TBS peptide (unstapled talin-binding site peptide of RIAM)]",binding,Talin rod R7R8 domains,binds
same,binding,[1],binds

# Source: patent US20240360186A1, “Treatment Of Integrin-Related Disorders With Stapled Peptides” (Institute For Cancer Research d/b/a The Research Institute …, priority 2021, published 2024)
